Experimental data taken from patent US8557802B2, “Amide derivative” (Daiichi Sankyo Company, Limited, priority 2009, dated 2013).
Some results were stated once for a whole list of compounds, not compound by compound.

Tested on: C57/BL6J mice
Experiment: Mouse oGTT (oral glucose tolerance test)
Type: in vivo
Conditions: male, fasted, 1 mg/mL liquid orally 30 min before oral glucose load (30% glucose, 10 mL/kg), plasma glucose at pre, 15, 30, 60, 120 min

Row | SMILES | decrease rate (%) of the blood sugar level AUC with respect to a vehicle-administered group [%]
1 | CCC(Oc1ccc(-c2noc(C(C)C)n2)cc1)c1nc(-c2ccc(C(=O)N(C)CCOC(=O)CN)c(F)c2)no1.Cl (stereo not shown) [Example 45] | ≥ 20
2 | CCC(Oc1ccc(-c2noc(C(C)C)n2)cc1)c1nc(-c2ccc(C(=O)N(C)CCOC)c(F)c2)no1 (stereo not shown) [Example 31] | ≥ 20
3 | CCC(Oc1ccc(-c2noc(C)n2)cc1)c1nc(-c2ccc(C(=O)NC(C)(C)COC(=O)CN)c(F)c2)no1.Cl (stereo not shown) [Example 43] | ≥ 20
4 | CCC(Oc1ccc(-c2noc(C(C)C)n2)cc1)c1nc(-c2ccc(C(=O)NCCO)c(F)c2)no1 (stereo not shown) [Example 4, 2-Fluoro-N-(2-hydroxyethyl)-4-(5-{1-[4-(5-isopropyl-1,2,4-oxadiazol-3-yl)phenoxy]propyl}-1,2,4-oxadiazol-3-yl)benzamide] | ≥ 20
5 | CCC(Oc1ccc(-c2noc(C(C)C)n2)cc1)c1nc(-c2ccc(C(=O)NC(C)(C)CO)c(F)c2)no1 (stereo not shown) [Example 8, 2-Fluoro-N-(2-hydroxy-1,1-dimethylethyl)-4-(5-{1-[4-(5-isopropyl-1,2,4-oxadiazol-3-yl)phenoxy]propyl}-1,2,4-oxadiazol-3-yl)benzamide] | ≥ 20
6 | CCC(Oc1ccc(-c2noc(C(C)C)n2)cc1)c1nc(-c2ccc(C(=O)N3CCOCC3)c(F)c2)no1 (stereo not shown) [Example 1, 4-[2-Fluoro-4-(5-{1-[4-(5-isopropyl-1,2,4-oxadiazol-3-yl)phenoxy]propyl}-1,2,4-oxadiazol-3-yl)benzoyl]morpholine] | ≥ 20
7 | CCC(Oc1ccc(-c2noc(C(C)C)n2)cc1)c1nc(-c2ccc(C(=O)N[C@@H](C)CO)c(F)c2)no1 (stereo partly drawn) [Example 6, 2-Fluoro-N-[(1S)-2-hydroxy-1-methylethyl]-4-(5-{1-[4-(5-isopropyl-1,2,4-oxadiazol-3-yl)phenoxy]propyl}-1,2,4-oxadiazol-3-yl)benzamide] | ≥ 20
8 | CCC(Oc1ccc(-c2noc(C(C)C)n2)cc1)c1nc(-c2ccc(C(=O)N[C@H](C)COC(=O)[C@@H]3CCCN3)c(F)c2)no1.Cl (stereo partly shown) [Example 62] | ≥ 20
9 | CCC(Oc1ccc(-c2noc(C(C)C)n2)cc1)c1nc(-c2ccc(C(=O)NCCCO)c(F)c2)no1 (stereo not shown) [Example 11, 2-Fluoro-N-(3-hydroxypropyl)-4-(5-{1-[4-(5-isopropyl-1,2,4-oxadiazol-3-yl)phenoxy]propyl}-1,2,4-oxadiazol-3-yl)benzamide] | ≥ 20
10 | CCC(Oc1ccc(-c2noc(C(C)C)n2)cc1)c1nc(-c2ccc(C(=O)NC(C)(C)COC(=O)CN)c(F)c2)no1.Cl (stereo not shown) [Example 16, 2-{[2-Fluoro-4-(5-{1-[4-(5-isopropyl-1,2,4-oxadiazol-3-yl)phenoxy]propyl}-1,2,4-oxadiazol-3-yl)benzoyl]amino}-2-methylpropyl glycinate hydrochloride] | ≥ 20
11 | CCC(Oc1ccc(-c2noc(C(C)C)n2)cc1)c1nc(-c2ccc(C(=O)N[C@@H](C)COC(=O)CN)c(F)c2)co1.Cl (stereo partly drawn) [Example 19, (2S)-2-{[2-fluoro-4-(2-{1-[4-(5-isopropyl-1,2,4-oxadiazol-3-yl)phenoxy]propyl}-1,3-oxazol-4-yl)benzoyl]amino}propyl glycinate hydrochloride] | ≥ 20
12 | CCC(Oc1ccc(-c2noc(C(C)C)n2)cc1)c1nc(-c2ccc(C(=O)N[C@@H](C)COC(=O)CN)c(F)c2)no1.Cl (stereo partly shown) [Example 13, (25)-2-{[2-fluoro-4-(5-{1-[4-(5-isopropyl-1,2,4-oxadiazol-3-yl)phenoxy]propyl}-1,2,4-oxadiazol-3-yl)benzoyl]amino}propyl glycinate hydrochloride] | ≥ 20
13 | CC[C@@H](Oc1ccc(-c2noc(C(C)C)n2)cc1)c1nc(-c2ccc(C(=O)NCC3CC3)c(F)c2)no1 [Example 68, N-(cyclopropylmethyl)-2-fluoro-4-(5-{(1R)-1-[4-(5-isopropyl-1,2,4-oxadiazol-3-yl)phenoxy]propyl}-1,2,4-oxadiazol-3-yl)benzamide] | ≥ 20
14 | CCc1nc(-c2ccc(OC(CC)c3nc(-c4ccc(C(=O)NC(C)(C)COC(=O)CN)c(F)c4)no3)cc2)no1.Cl (stereo not shown) [Example 26, 2-{[4-(5-{1-[4-(5-Ethyl-1,2,4-oxadiazol-3-yl)phenoxy]propyl}-1,2,4-oxadiazol-3-yl)-2-fluorobenzoyl]amino}-2-methylpropyl glycinate hydrochloride] | ≥ 20
15 | CCC(Oc1ccc(-c2noc(C(C)C)n2)cc1)c1nc(-c2ccc(C(=O)N[C@H](C)COC(=O)CO)c(F)c2)no1 (stereo partly drawn) [Example 17, (2R)-2-{[2-fluoro-4-(5-{1-[4-(5-isopropyl-1,2,4-oxadiazol-3-yl)phenoxy]propyl}-1,2,4-oxadiazol-3-yl)benzoyl]amino}-2-methylpropyl glycolate] | ≥ 20
16 | CC(C)c1nc(-c2ccc(OC(C)c3nc(-c4ccc(C(=O)NC(C)(C)COC(=O)CN)c(F)c4)no3)cc2)no1.Cl (stereo not shown) [Example 56] | ≥ 20

Row | SMILES | decrease rate (%) of the blood sugar level AUC with respect to a vehicle-administered group [%]
17 | CCC(Oc1ccc(-c2noc(C(C)C)n2)cc1)c1nc(-c2ccc(C(=O)NC(C)(C)COC(=O)CN)c(C)c2)no1 (stereo not shown) [Example 44] | ≥ 20
18 | CCc1nc(-c2ccc(OC(CC)c3nc(-c4ccc(C(=O)N[C@H](C)COC(=O)CN)c(F)c4)no3)cc2)no1.Cl (stereo partly drawn) [Example 25, (2R)-2-{[4-(5-{1-[4-(5-ethyl-1,2,4-oxadiazol-3-yl)phenoxy]propyl}-1,2,4-oxadiazol-3-yl)-2-fluorobenzoyl]amino}propyl glycinate hydrochloride] | ≥ 20
19 | CCC(Oc1ccc(-c2noc(C(C)C)n2)cc1)c1nc(-c2ccc(C(=O)N[C@@H](C)CO)c(F)c2)co1 (stereo partly drawn) [Example 18, 2-Fluoro-N-[(1S)-2-hydroxy-1-methylethyl]-4-(2-{1-[4-(5-isopropyl-1,2,4-oxadiazol-3-yl)phenoxy]propyl}-1,3-oxazol-4-yl)benzamide] | ≥ 20
20 | CCc1nc(-c2ccc(OC(CC)c3nc(-c4ccc(C(=O)NCCO)c(F)c4)no3)cc2)no1 (stereo not shown) [Example 23, 4-(5-{1-[4-(5-Ethyl-1,2,4-oxadiazol-3-yl)phenoxy]propyl}-1,2,4-oxadiazol-3-yl)-2-fluoro-N-(2-hydroxyethyl)benzamide] | ≥ 20
21 | CCC(Oc1ccc(-c2noc(C3CC3)n2)cc1)c1nc(-c2ccc(C(=O)NC(C)(C)COC(=O)CN)c(F)c2)no1 (stereo not shown) [Example 55] | ≥ 20
22 | CC[C@@H](Oc1ccc(-c2noc(C(C)C)n2)cc1)c1nc(-c2ccc(C(=O)N[C@H](C)CO)c(F)c2)no1 [Example 67, 2-Fluoro-N-[(1R)-2-hydroxy-1-methylethyl]-4-(5-{(1R)-1-[4-(5-isopropyl-1,2,4-oxadiazol-3-yl)phenoxy]propyl}-1,2,4-oxadiazol-3-yl)benzamide] | ≥ 20
23 | CCC(Oc1ccc(-c2noc(C(C)C)n2)cc1)c1nc(-c2ccc(C(=O)N[C@H](C)COC(=O)CN)c(F)c2)no1.Cl (stereo partly drawn) [Example 12, (2R)-2-{[2-fluoro-4-(5-{1-[4-(5-isopropyl-1,2,4-oxadiazol-3-yl)phenoxy]propyl}-1,2,4-oxadiazol-3-yl)benzoyl]amino}propyl glycinate hydrochloride] | ≥ 20
24 | CCC(Oc1ccc(-c2noc(C(C)C)n2)cc1)c1nc(-c2ccc(C(=O)N[C@H](C)COC(=O)[C@@H](N)CC(N)=O)c(F)c2)no1.Cl (stereo partly shown) [Example 63] | ≥ 20
25 | CCC(Oc1ccc(-c2noc(C(C)C)n2)cc1)c1nc(-c2ccc(C(=O)NC(C)(C)COC(=O)CN)c(F)c2)co1.Cl (stereo not shown) [Example 66] | ≥ 20
26 | CCC(Oc1ccc(-c2noc(C)n2)cc1)c1nc(-c2ccc(C(=O)NCCO)c(F)c2)no1 (stereo not shown) [Example 33] | ≥ 20
27 | CCC(Oc1ccc(-c2noc(C(C)C)n2)cc1)c1nc(-c2ccc(C(=O)N[C@@H](CC)COC(=O)CN)c(F)c2)no1.Cl (stereo partly drawn) [Example 15, (2S)-2-{[2-fluoro-4-(5-{1-[4-(5-isopropyl-1,2,4-oxadiazol-3-yl)phenoxy]propyl}-1,2,4-oxadiazol-3-yl)benzoyl]amino}butyl glycinate hydrochloride] | ≥ 20
28 | CC(C)c1nc(-c2ccc(OC(C)c3nc(-c4ccc(C(=O)N[C@H](C)COC(=O)CN)c(F)c4)no3)cc2)no1.Cl (stereo partly shown) [Example 61] | ≥ 20
29 | CCc1nc(-c2ccc(OC(CC)c3nc(-c4ccc(C(=O)N[C@@H](C)COC(=O)CN)c(F)c4)no3)cc2)no1.Cl (stereo partly drawn) [Example 24, (2S)-2-{[4-(5-{1-[4-(5-ethyl-1,2,4-oxadiazol-3-yl)phenoxy]propyl}-1,2,4-oxadiazol-3-yl)-2-fluorobenzoyl]amino}propyl glycinate hydrochloride] | ≥ 20
30 | CCC(Oc1ccc(-c2noc(C(C)C)n2)cc1)c1nc(-c2ccc(C(=O)N[C@H](CC)CO)c(F)c2)no1 (stereo partly drawn) [Example 10, 2-Fluoro-N-[(1R)-1-(hydroxymethyl)propyl]-4-(5-{1-[4-(5-isopropyl-1,2,4-oxadiazol-3-yl)phenoxy]propyl}-1,2,4-oxadiazol-3-yl)benzamide] | ≥ 20
31 | CCC(Oc1ccc(-c2noc(C3CC3)n2)cc1)c1nc(-c2ccc(C(=O)N[C@H](C)COC(=O)CN)c(F)c2)no1.Cl (stereo partly drawn) [Example 28, (2R)-2-{[4-(5-{1-[4-(5-cyclopropyl-1,2,4-oxadiazol-3-yl)phenoxy]propyl}-1,2,4-oxadiazol-3-yl)-2-fluorobenzoyl]amino}propyl glycinate hydrochloride] | ≥ 20
